Assay results: PubChem BioAssay AID2685 (National Center for Advancing Translational Sciences (NCATS), 2010)
Some of the results follow. These are further read-outs of the screen, such as a control signal, another cell line or another target. No call is given for them. The list favours compounds with an active or inconclusive main result. Words in brackets tell the shape of the fitted curve; partial curves, single points and poor fits give uncertain potencies.

Assay: qHTS Assay for Lipid Storage Modulators in Drosophila S3 Cells;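 for cell number change: cells counted by Cell Tracker Red CMTPX staining in the red channel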
Conditions: BODIPY lipid droplet fluorescence, 18-24 h; for cell number change: measured here: cell count max response, cells fed with added oleic acid
Outline: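 Laser-scanning cytometry quantifies lipid droplet accumulation (500–530 nm total intensity; droplet/cell object ratio) in oleic acid-fed (400 uM added) Drosophila S3 cells treated with a concentration series. 20 uM Triacsin C defined 100% inhibition.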

[1] = measured here: cell number channel AC50, cells fed with added oleic acid
[2] = measured here: lipid fluorescence (Fed channel) AC50, cells fed with added oleic acid

| Compound | AC50 [1] | AC50 [2] | cell number change [%] |
| --- | --- | --- | --- |
| CCOC(=O)c1ccc(NC(=S)N2CCN(S(C)(=O)=O)CC2)cc1 | 116 nM [rising, full curve, poor fit] | 164 nM [rising, full curve, poor fit] |  |
| Cc1c(NC(=O)Cc2cccs2)cccc1[N+](=O)[O-] |  |  | -12.5 |
| Cc1ccc(-c2nc(CNC(=O)c3cc(C)on3)cs2)cc1 |  | 29100 nM [falling, single point] | -10.8 |
| COc1cccc(CN2CC(C(=O)NCCC3=CCCCC3)CCC2=O)c1 (stereo unspecified) |  | 6510 nM [rising, single point] | -9.23 |
| COc1cc(Cl)c(C)cc1NC(=O)CCN1C(=O)NC(C)(C)C1=O |  |  | -12.9 |
| O=c1ccc(-c2nc3cc(Cl)ccc3n2Cc2ccccc2)c[nH]1 |  | 20600 nM [rising, single point] | 13.6 |
| CCOc1ccc2nc(SCC(=O)NCc3ccc(S(N)(=O)=O)cc3)sc2c1 |  | 18400 nM [falling, single point] | -21.2 |
| CCOc1ccc(NC(=O)c2nn(-c3ccc(OC)cc3OC)c(=O)c3ccccc23)cc1 |  | 6510 nM [rising, partial curve, poor fit] | -20.5 |
| CC(=O)NC1(C(F)(F)F)NC(=O)N(C2CCCCC2)C1=O (stereo unspecified) |  |  | -6.43 |
| Cc1nc2ccc(NC(=O)Cc3cccc(F)c3)cc2s1 | 29100 nM [rising, partial curve, poor fit] |  | 67.9 |
| COc1ccccc1OCC(=O)/C=C1/N(C)c2ccccc2C1(C)C | 18400 nM [falling, single point] |  | -132 |
| COc1cccc(-c2nn(-c3ccccc3)cc2C(=O)O)c1 | 461 nM [falling, full curve, poor fit] | 146 nM [falling, full curve, poor fit] | -24.2 |
| O=C(COc1ccccc1)Nc1ccc(N2CCCCC2)cc1 | 18400 nM [rising, partial curve] |  | 93.5 |
| O=C(Cc1ncc(C(F)(F)F)cc1Cl)NCCc1ccccc1 | 3660 nM [falling, single point] |  | -9.52 |
| CC(=O)NCCn1ccc2ccccc21 | 29100 nM [falling, single point] |  | -173 |
| Cc1ccc(C(=O)CSc2ncn[nH]2)cc1 |  | 580 nM [falling, single point] | 1.47 |
| CCc1noc(C)c1C(=O)Nc1cc(S(=O)(=O)N(CC)CC)ccc1N1CCOCC1 |  | 8200 nM [rising, partial curve, poor fit] | 11 |
| Cc1nn(-c2ccccc2)c(Cl)c1C(=O)Nc1ccccc1 |  | 3260 nM [rising, partial curve] |  |
| CN(C)S(=O)(=O)c1ccc(N2CCN(S(=O)(=O)c3ccc(F)cc3)CC2)c(Cl)c1 | 5.17 nM [falling, full curve, poor fit] | 58 nM [falling, full curve, poor fit] | -25.4 |
| CCc1nnc(NC(=O)CSc2nnc(Cc3cccn3C)n2C)s1 | 4.11 nM [falling, full curve, poor fit] | 820 nM [falling, full curve] | -17.6 |

| Compound | AC50 [1] | AC50 [2] | cell number change [%] |
| --- | --- | --- | --- |
| COC(=O)c1cc(S(=O)(=O)NCC2CCN(Cc3ccccc3F)CC2)c[nH]1 |  |  | -27 |
| CCc1c(C)nc2ncnn2c1N1CCC(C(=O)Nc2ccc(C)cc2)CC1 |  | 461 nM [falling, full curve] | -3.47 |
| COCCc1ncc(CN2CCC(C(=O)Nc3cccc(-c4cscn4)c3)CC2)cn1 |  | 18400 nM [falling, single point] | -28.1 |
| COc1cc(OC)cc(C(C(=O)NCc2ccccc2)N(Cc2ccco2)C(=O)c2ccno2)c1 (stereo unspecified) | 1840 nM [rising, partial curve, poor fit] |  | 5.79 |
| Cc1ccc(Sc2nnc(-c3ccccc3)cc2C#N)cc1 | 1640 nM [rising, full curve] | 2590 nM [rising, partial curve] | 57 |
| O=C1CC(c2ccc(F)cc2)Cc2nc(N3CCN(c4ccccc4)CC3)ncc21 (stereo unspecified) |  | 580 nM [rising, single point] | -21.1 |
| CCOC(=O)C1=C(C)NC(C)=C(C(=O)OCC)C1c1ccc(O)cc1 | 146 nM [falling, full curve, poor fit] |  | -6.68 |
| O=C(O)/C=C/c1ccccc1Oc1ccc(Cl)cc1Cl | 29100 nM [rising, single point] | 29100 nM [rising, single point] | 51.1 |
| COc1ccccc1/C=N/N1CCN(Cc2ccccc2Cl)CC1 | 4.11 nM [rising, full curve, poor fit] | 29100 nM [rising, single point] | 14.6 |
| Cc1nc2ccc(NC(=O)c3ccc(C)c(S(=O)(=O)N4CCOCC4)c3)cc2s1 | 1030 nM [rising, partial curve] |  | -10.3 |
| COC(=O)c1ccc(NC(=O)c2cn(-c3ccccc3)nc2-c2ccncc2)cc1 | 2310 nM [rising, partial curve] | 2310 nM [rising, partial curve] |  |
| Cc1ccc(C(=O)Nc2ccc3c(c2)ncn3C)cc1 |  | 32600 nM [rising, single point] | 3.17 |
| CC1CCCC(NC(=O)CSc2ccc(F)cc2)C1C (stereo unspecified) | 130 nM [rising, full curve, poor fit] |  |  |
| COc1ccc(-c2noc(CNC(=O)CCN3C(=O)[C@H]4CC=CC[C@H]4C3=O)n2)cc1 | 1160 nM [rising, full curve, poor fit] | 29100 nM [rising, single point] | 17.9 |
| O=C(NNC(=O)C12CC3CC(CC(C3)C1)C2)c1ccncc1 | 146 nM [rising, full curve, poor fit] |  | 22.2 |
| O=C(O)c1ccc(S(=O)(=O)N2CCSCC2)cc1 |  |  | 12.8 |
| COc1ccc(C(=O)NC2CCN(C(=O)NCc3ccccc3)CC2)cc1 | 92 nM [rising, full curve, poor fit] |  | 11.7 |
| [N-]=[N+]=NC(c1ccccc1)c1nc2ccccc2[nH]c1=O (stereo unspecified) |  | 11600 nM [falling, partial curve] | -2.72 |
| CN=C1c2ccccc2CN1c1cccc(C(=O)OC)c1 |  | 25900 nM [rising, single point] | -11.1 |
| Cc1ccc2cc(C)c(Sc3nnnn3-c3ccccc3)nc2c1 | 651 nM [rising, single point] |  |  |

| Compound | AC50 [1] | AC50 [2] | cell number change [%] |
| --- | --- | --- | --- |
| O=C(COC(=O)Cc1cccc(C(F)(F)F)c1)Nc1ccc2c(c1)OCCO2 | 4110 nM [falling, full curve, poor fit] | 4110 nM [falling, full curve, poor fit] | -26.2 |
| Cc1ccc(S(=O)(=O)N2CCN(CC(O)CN3CCOCC3)CC2)cc1 (stereo unspecified) |  | 580 nM [falling, full curve] |  |
| Cc1cc(Cl)ccc1OCCCC(=O)OCC(=O)Nc1cccc(S(N)(=O)=O)c1 |  |  | 6.93 |
| CC1(NC(=S)N(CCO)CCO)CCS(=O)(=O)C1 (stereo unspecified) |  |  | 3.81 |
| O=C(Nc1ccc(Cl)cc1)C(c1ccccc1)N(CCO)CCO (stereo unspecified) |  | 14600 nM [falling, single point] | 0.532 |
| Cc1cc(=O)[nH]c2c1c(C)nn2C1CCCC1 |  | 4.61 nM [falling, full curve, poor fit] | -8.96 |
| CCCCC(=O)Oc1c(S(=O)(=O)c2ccccc2)c(C)nn1C(C)(C)C |  | 580 nM [rising, single point] | -16.7 |
| COc1ccc(NC(=O)N2CCCC(c3nc(-c4ccc(F)cc4)no3)C2)cc1 (stereo unspecified) |  | 92 nM [falling, full curve, poor fit] | -3.1 |
| CCNc1ccc(S(=O)(=O)N(C)C)cc1NCC(=O)Nc1ccccc1Br | 184 nM [falling, partial curve] | 92 nM [falling, full curve] |  |
| CC(=O)Nc1ccc(NC(=O)c2ccc(N(C)S(=O)(=O)c3ccc(C)cc3)cc2)cc1 |  | 2310 nM [rising, partial curve] | -2.05 |
| CCCCOc1ccc(/C(O)=C2/C(=O)C(=O)N(Cc3cccnc3)C2c2ccncc2)c(C)c1 (stereo unspecified) | 580 nM [rising, single point] | 6510 nM [rising, partial curve, poor fit] |  |
| CC(OC(=O)c1ccc2c(=O)n3c(nc2c1)CCC3)C(N)=O (stereo unspecified) |  | 731 nM [rising, single point] | 22.3 |
| O=C(Nc1cc(S(=O)(=O)N2CCOCC2)ccc1N1CCOCC1)c1cn2ccccc2n1 |  |  | -4.47 |
| c1ccc(-c2ccc(-c3nc(-c4ccccn4)no3)cc2)cc1 | 1160 nM [rising, full curve] |  |  |
| CCCCCCCCCS(=O)(=O)Nc1cc(C)ccn1 | 4110 nM [rising, single point] |  | 19.6 |
| Cc1cc(C)nc(SCCS(=O)(=O)Cc2ccccc2)n1 |  | 16400 nM [rising, single point] | 10 |
| CC(Sc1nc2ncc(Cl)cc2[nH]1)C(=O)Nc1ccc(C(N)=O)cc1 (stereo unspecified) | 5.17 nM [falling, full curve, poor fit] | 1640 nM [falling, partial curve] | -13.3 |
| Cc1cc(C(=O)N/N=C/c2ccc(N(C)C)o2)cs1 |  | 25900 nM [falling, single point] | -8.5 |
| O=C(Nc1nnc(-c2ccccc2)o1)c1nc2ccccc2s1 | 5800 nM [falling, single point] |  |  |
| O=C(Nc1cccc(Cl)c1N1CCCC1)c1ccc([N+](=O)[O-])o1 | 461 nM [rising, full curve] | 411 nM [rising, full curve] | 16.4 |

Looked up by structure from the entries so far, 3 records:

| Compound | AC50 [1] | AC50 [2] | cell number change [%] |
| --- | --- | --- | --- |
| c1ccc(-c2ccc(-c3nc(-c4ccccn4)no3)cc2)cc1 | 1160 nM [rising, full curve] |  |  |
| COc1ccc(NC(=O)N2CCCC(c3nc(-c4ccc(F)cc4)no3)C2)cc1 (stereo unspecified) |  | 92 nM [falling, full curve, poor fit] | -3.1 |
| O=C(COC(=O)Cc1cccc(C(F)(F)F)c1)Nc1ccc2c(c1)OCCO2 | 4110 nM [falling, full curve, poor fit] | 4110 nM [falling, full curve, poor fit] | -26.2 |
